# Values of other authors in patent US5883107A, “Arginine mimic derivatives as enzyme inhibitors” (Corvas International, Inc., priority 1995, dated 1999).
# At least one compound was matched to its structure with a doubt left.
# Tested on: thrombin
# Settings: cited from earlier work
smiles,measurement,value
"CCOC(=O)c1ccc(OC(=O)CCCCCNC(=N)N)cc1 [FOY, [ethyl p-(6-guanidinohexanoyloxy) benzoate] methane sulfonate]",inhibition of thrombin (in words),non-selective competitive inhibitor of thrombin
